Laboratory results from PubChem BioAssay AID248 (DTP/NCI, 2004).
The list is a part of this screen's results and no random one: it gathers tests that were run many times, whatever their T/C, doses with no T/C, and many T/C values between a quarter and a half above the control. Other doses and runs of a compound stand elsewhere. T/C gives the treated animals as a percentage of the vehicle group. Some entries give survivors of the animals treated and no T/C: the source files T/C as zero there, which appears to mark a toxic dose or a test without result, not a measured value. Some survivor counts are full or nearly so, which does not show that the dose was tolerated: survival well below the control is almost never listed, so the zero probably covers shortened survival too. Survivors were counted at the toxicity check, usually on the fifth day, unless a day is given; later deaths do not show. Schedules are NCI's codes, read here as Q, the interval in days (D) or hours (H), X, the number of doses. Some entries hold several experiments; the results are listed from low to high. Some schedules carry Z or #; the key to these is not given. Some structures stand for samples that the source files as different forms (salt, stereo form or complex); doses refer to the form tested. For survival time, the PubChem record calls one and a half times the control and up active, and a quarter to a half above the control has no call in these data; cut-offs in other NCI protocols can differ.

System: L1210 leukemia ip in BDF1 mice, survival T/C
Experiment: NCI In Vivo Anticancer Drug Screen. Data for tumor model L1210 Leukemia (intraperitoneal) in B6D2F1 (BDF1) mice
Conditions: T/C endpoint: mean survival time, higher T/C = longer survival
[1] = dose: 50.0 mg/kg/injection, schedule: Q01DX009 (ip), vehicle: Klucel (hydroxypropylcellulose) (HPC)
[2] = dose: 100.0 mg/kg/injection, schedule: Q01DX009 (ip), vehicle: Klucel (hydroxypropylcellulose) (HPC)
[3] = dose: 100.0 mg/kg/injection, schedule: Q04DX003 (ip), vehicle: Klucel (hydroxypropylcellulose) (HPC)
[4] = dose: 200.0 mg/kg/injection, schedule: Q04DX003 (ip), vehicle: Klucel (hydroxypropylcellulose) (HPC)
[5] = dose: 100.0 mg/kg/injection, schedule: Q04DX003 (ip), vehicle: saline with Tween-80
[6] = dose: 200.0 mg/kg/injection, schedule: Q04DX003 (ip), vehicle: saline with Tween-80
[7] = dose: 400.0 mg/kg/injection, schedule: Q04DX003 (ip), vehicle: saline with Tween-80
[8] = dose: 200.0 mg/kg/injection, schedule: Q01DX001 (ip), vehicle: saline
[9] = dose: 400.0 mg/kg/injection, schedule: Q01DX001 (ip), vehicle: saline
[10] = dose: 400.0 mg/kg/injection, schedule: Q01DX009 (ip), vehicle: saline with Tween-80
[11] = dose: 200.0 mg/kg/injection, schedule: Q04DX003 (ip), vehicle: saline
[12] = dose: 400.0 mg/kg/injection, schedule: Q04DX003 (ip), vehicle: saline
[13] = dose: 400.0 mg/kg/injection, schedule: Q01DX001 (ip), vehicle: carboxymethylcellulose (CMC)
[14] = dose: 50.0 mg/kg/injection, schedule: Q04DX003 (ip), vehicle: saline
[15] = dose: 100.0 mg/kg/injection, schedule: Q04DX003 (ip), vehicle: saline

SMILES: CSc1nc(NC(=O)CCl)cc(=O)[nH]1
- survivor count [1]: 1 of 6, 3 of 6, 6 of 6
- survivor count [2]: 2 of 6
- survivor count [3]: 2 of 6
- survivor count [4]: 6 of 6
- survivor count (dose: 400.0 mg/kg/injection, schedule: Q04DX003 (ip), vehicle: Klucel (hydroxypropylcellulose) (HPC)): 6 of 6

SMILES: CC(C)OC(=O)Nc1ccncc1
- survivor count (dose: 25.0 mg/kg/injection, schedule: Q04DX002 (ip), vehicle: saline with Tween-80): 0 of 3

SMILES: CCCCN=C(NCCCC)OCCCC
- survivor count (dose: 25.0 mg/kg/injection, schedule: Q01DX Z (ip), vehicle: saline): 0 of 6

SMILES: CC(=O)OC(C)(/N=N/C(C)(OC(C)=O)c1ccc(Cl)cc1)c1ccc(Cl)cc1 (stereo unspecified)
- survivor count (dose: 200.0 mg/kg/injection, schedule: Q01DX001 (ip), vehicle: gum acacia): 6 of 6
- survivor count (dose: 400.0 mg/kg/injection, schedule: Q01DX001 (ip), vehicle: gum acacia): 6 of 6

SMILES: N#CN=C([S-])[S-].N#CN=C([S-])[S-].[Cu]
- survivor count [5]: 0 of 6
- survivor count [6]: 0 of 6
- survivor count [7]: 0 of 6

SMILES: Cc1cc(C)c(CCl)c(C)c1CCl
- survivor count [8]: 2 of 4
- survivor count [9]: 0 of 4

SMILES: S=C(S)N1CCC(CCCC2CCN(C(=S)S)CC2)CC1
- survivor count [10]: 5 of 6

SMILES: Cl[C](Cl)(Cl)[Hg][c]1ccccc1
- survivor count (dose: 25.0 mg/kg/injection, schedule: Q01DX009 (ip), vehicle: Klucel (hydroxypropylcellulose) (HPC)): 3 of 6
- survivor count [1]: 0 of 6
- survivor count [2]: 0 of 6
- survivor count (dose: 200.0 mg/kg/injection, schedule: Q01DX009 (ip), vehicle: Klucel (hydroxypropylcellulose) (HPC)): 1 of 6
- survivor count (dose: 400.0 mg/kg/injection, schedule: Q01DX009 (ip), vehicle: Klucel (hydroxypropylcellulose) (HPC)): 0 of 6

SMILES: C[C@@H]1CCC[C@@H](NC(=O)N(CCCl)N=O)C1
- T/C (dose: 23.0 mg/kg/injection, schedule: Q01DX001 (ip), vehicle: saline with Tween-80): 131 % of control
- survivor count (dose: 300.0 mg/kg/injection, schedule: Q01DX009 (ip), vehicle: Klucel (hydroxypropylcellulose) (HPC)): 5 of 6

SMILES: CN1CCC=C(C(=O)N2c3ccccc3Sc3ccccc32)C1
- survivor count [11]: 1 of 6
- survivor count [12]: 0 of 6

SMILES: Cn1c(=O)[nH]c(=O)c2[nH]c(CO)nc21
- survivor count [13]: 4 of 4

SMILES: CCOC(=O)CCc1c(C)[nH]c(C(=O)OCC)c1C
- survivor count (dose: 50.0 mg/kg/injection, schedule: Q04DX003 (ip), vehicle: Klucel (hydroxypropylcellulose) (HPC)): 0 of 6
- survivor count [3]: 0 of 6
- survivor count [4]: 0 of 6 and 6 of 6

SMILES: COc1cc(/C=C2\C(=O)NC(=O)N(c3ccccc3)C2=O)cc(OC)c1OC
- survivor count (dose: 200.0 mg/kg/injection, schedule: Q01DX009 (ip), vehicle: saline with Tween-80): 3 of 6

SMILES: CCCNC1=C(N2CC2)C(=O)C(NCCC)=C(N2CC2)C1=O
- T/C (dose: 1.5 mg/kg/injection, schedule: Q04DX003 (ip), vehicle: saline): 125 % of control
- T/C (dose: 3.12 mg/kg/injection, schedule: Q01DX009 (ip), vehicle: saline): 126 and 132 % of control
- T/C (dose: 6.0 mg/kg/injection, schedule: Q04DX003 (ip), vehicle: saline): 125 and 128 % of control
- T/C (dose: 6.25 mg/kg/injection, schedule: Q01DX009 (ip), vehicle: saline): 143 and 148 % of control
- T/C (dose: 12.5 mg/kg/injection, schedule: Q01DX009 (ip), vehicle: saline): 129 and 130 % of control
- survivor count (dose: 25.0 mg/kg/injection, schedule: Q01DX009 (ip), vehicle: saline): 6 of 6
- survivor count [14]: 5 of 6
- survivor count [15]: 0 of 6

SMILES: O=C(O)C(Br)C(Br)C(=O)O.[Ag] (stereo unspecified)
- survivor count (dose: 37.5 mg/kg/injection, schedule: Q01DX001 (ip), vehicle: other): 1 of 6
- survivor count (dose: 75.0 mg/kg/injection, schedule: Q01DX001 (ip), vehicle: other): 0 of 6
- survivor count (dose: 150.0 mg/kg/injection, schedule: Q01DX001 (ip), vehicle: other): 0 of 6
- survivor count (dose: 300.0 mg/kg/injection, schedule: Q01DX001 (ip), vehicle: other): 6 of 6

SMILES: ClCCN(CCCl)CCCNc1cc(-c2ccc(Cl)cc2)nc2cc(Cl)ccc12
- survivor count (dose: 100.0 mg/kg/injection, schedule: Q01DX001 (ip), vehicle: saline): 2 of 4
- survivor count [9]: 0 of 4

SMILES: CS(=O)(=O)n1c(CBr)nc2ccccc21
- survivor count (dose: 400.0 mg/kg/injection, schedule: Q04DX003 (ip), vehicle: saline sonified): 0 of 6

SMILES: CCOC(O)(C(F)(F)F)C(F)(F)F
- survivor count (dose: 25.0 mg/kg/injection, schedule: Q04DX003 (ip), vehicle: saline with Tween-80): 6 of 6
- survivor count (dose: 50.0 mg/kg/injection, schedule: Q01DX009 (ip), vehicle: saline with Tween-80): 0 of 6
- survivor count (dose: 50.0 mg/kg/injection, schedule: Q04DX003 (ip), vehicle: saline with Tween-80): 0 of 6
- survivor count [5]: 5 of 6
- survivor count [8]: 2 of 4
- survivor count [6]: 0 of 6
- survivor count [9]: 0 of 4

SMILES: CC(C)N(C(=O)C1C2C=CC(C2)C1C(=O)N(C(C)C)C(C)C)C(C)C (stereo unspecified)
- survivor count [6]: 1 of 3
- survivor count [7]: 0 of 3

SMILES: c1ccc2c(c1)[nH]c1nc3ccncc3nc12
- survivor count [12]: 5 of 6

SMILES: OC12CC[N+](Cc3ccccc3)(CC1)CC2
- survivor count (dose: 300.0 mg/kg/injection, schedule: Q01DX001 (ip), vehicle: saline): 0 of 6

SMILES: CCSc1ncnc2c1ncn2C1OC(CO)C(O)C1O (stereo unspecified)
- T/C (dose: 300.0 mg/kg/injection, schedule: Q04DX003 (ip), vehicle: saline with Tween-80): 129 % of control

SMILES: CN(C)C(=O)NCc1ccco1
- survivor count (dose: 100.0 mg/kg/injection, schedule: Q04DX003 (ip), vehicle: other): 0 of 6
- survivor count (dose: 200.0 mg/kg/injection, schedule: Q04DX003 (ip), vehicle: other): 6 of 6
- survivor count (dose: 400.0 mg/kg/injection, schedule: Q04DX003 (ip), vehicle: other): 2 of 6

SMILES: NC(=O)N/N=C(/CBr)c1ccc(-c2ccccc2)cc1
- survivor count [8]: 3 of 6
- survivor count [9]: 0 of 6

SMILES: CC(=O)Nc1cccc(C[P+](c2ccccc2)(c2ccccc2)c2ccccc2)c1
- survivor count [13]: 0 of 4

SMILES: CCOC(=O)N(Cc1ccccc1)C1CC1
- survivor count [14]: 4 of 4

SMILES: N#CC1C(=O)NC(=O)C(C#N)C12CCCCC2 (stereo unspecified)
- survivor count [9]: 2 of 4
- survivor count [10]: 2 of 6

SMILES: O=[N+]([O-])c1nc2ccccc2[nH]1
- survivor count (dose: 200.0 mg/kg/injection, schedule: Q01DX001 (ip), vehicle: other): 0 of 4
- survivor count (dose: 400.0 mg/kg/injection, schedule: Q01DX001 (ip), vehicle: other): 0 of 4

SMILES: CCOC1(OCC)CCCN1C
- survivor count [15]: 0 of 6
- survivor count [11]: 0 of 6
- survivor count [12]: 0 of 6

SMILES: CC(=O)C(C(=O)NCc1ccccc1)C(c1cccc([N+](=O)[O-])c1)C(C(C)=O)C(=O)NCc1ccccc1 (stereo unspecified)
- survivor count [5]: 6 of 6
